Results: patent publication US11491109B2, “Pharmaceutical compositions for basic or neutral, low molecular weight compounds” (Hoffmann-La Roche Inc., priority 2017, dated 2022)

Experiment: Equilibrium solubility in EPO-solutions, 96-well SORESOS assay
Conditions: 48 h, room temperature
Protocol: Polymer solutions were prepared by dissolving EPO (0.1%, 0.5%, 1%, 2%, 3%, 4%, 5% (w/w)) in deionized water and adjusting all solutions to pH 6.0 by hydrochloric acid and sodium hydroxide at 25° C. Solutions were checked carefully for absence of particles.
(§1) Solubility of compounds in EPO-solutions was determined by using a 96-well assay that was introduced to measure equilibrium solubility in parallel to a solid state analysis of the residual solid (SORESOS)^21 as described before.^22 In brief, APIs were dispensed using the powder-picking-method^23 in a 96-well flat bottom plate (Corning Inc., Durham, USA). Mixtures were agitated by head-over-head rotation for 48 h at room temperature after addition of stir bars and polymer solutions (150 μl). […] Samples were analyzed directly in the 96-well filter plate with an exposure time of 5 min per well.
as §1, with “USA).” for “USA). Mixtures were agitated by head-over-head rotation for 48 h at room temperature after addition of stir bars and polymer solutions (150 μl).”

C(=C\c1ccccc1)/CN1CCN(C(c2ccccc2)c2ccccc2)CC1 [CNZ, Cinnarizine]
EPO concentration at which solubility reached a plateau: 2 % EPO (w/w)
